Results published in PubChem BioAssay AID624291 (National Center for Advancing Translational Sciences (NCATS), 2012).
The whole screen tested about 350,000 compounds, of which about 220 (0.063%) were called active. This list was built around the results that the source calls inconclusive (neither active nor inactive); the mix of calls is not that of the screen. Calls follow the shape of the dose curve; as a rule, active = well fitted activation curve with a large enough effect; inconclusive = small, poorly fitted or top-dose-only effect; inactive = no such curve, though single readings can be large or run the other way. Potencies beside an inconclusive call are fits to weak or partial responses and may not hold up.

assay: qHTS for Activators of Integrin-Mediated Alleviation for Muscular Dystrophy; conditions: alpha7betagal myoblasts, beta-gal FDG fluorescence, 48 h; activation: at 38.3 µM (top of the series); also: nearly all actives have a fitted effect of over 60% in size;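 as to activation: 100% = response of the positive control SU9516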
Summary of the method: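 Alpha7betagal+/- myoblasts (passage 13) were plated 16-24 hr, then exposed to compounds (1:260 dilution of DMSO stock) for 48 hours at 37C. After MPER lysis, β-galactosidase reporter activity was read as FDG fluorescence (ex 480/em 540) after 30 minutes.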
Potency is read from the fitted curve at half-maximal effect.

Potency, inactive:
CC1CCN(C(=O)c2[nH]cnc2C(=O)NC2CCN(C(=O)OC(C)(C)C)CC2)CC1
Cc1ccccc1-n1c(SCC(=O)NCC2CCCO2)nc2c([nH]c3ccccc32)c1=O (stereo not given)
O=C(O)CNCC1COc2ccccc2O1 (stereo not given)
Clc1cccc(OCCCN2CCCC2)c1Cl
Cn1cccc1CNC(=S)Nc1ccccc1Cl
CC(C)(C)C1CCc2c(sc(NC(=O)c3ccco3)c2C(N)=O)C1 (stereo not given)
O=C(c1c(F)cccc1F)N1CCC(O)(c2ccc(F)cc2)CC1
CCn1c(SCCN2CCOCC2)nc2c1c(=O)n(C)c(=O)n2C
Cc1ccc(OCC(=O)Nc2ccc(-c3nc4ncccc4o3)cc2)c(C)c1
O=C(NCCC1=CCCCC1)C(=O)NCC1OCCCN1S(=O)(=O)c1ccccc1 (stereo not given)
c1csc(-c2nnc(N3CCOCC3)c3ccccc23)c1
CC1=C(C(=O)Nc2ccccn2)C(c2cccnc2)n2nnnc2N1 (stereo not given)
COc1ccc2c(c1)CSC(c1ccccc1)C2=O (stereo not given)
Cc1ccc(NC(=O)c2noc3c2CCC3)cc1C
O=C(CN1C(=O)COc2ccccc21)NCCCN1CCOCC1
Cc1ccc(/C=N/NC(=O)c2c(C)nc3ccc(Br)cn23)cc1
Oc1ccc(O)c(C=NNC(=S)NC2CC3CC2C2C=CCC32)c1 (stereo not given)
COc1ccc(C(=O)Nc2nnc(-c3cccs3)s2)cc1
COc1ccccc1N1CCN(C(=O)CCc2c[nH]c3ccccc23)CC1
CC(O)CNCCCCOc1ccc(OCc2ccccc2)cc1 (stereo not given)
CC(C)Oc1ccc(C(=O)Nc2cccc(S(=O)(=O)N3CCCC3)c2)cc1
CC(=O)Nc1ccc(NC(=O)c2ccc(CN3CCc4ccccc4C3)cc2)cc1
Cc1ccc(NC2=C(NC(=O)c3ccccc3)C(=O)c3ccccc3C2=O)cc1Cl
O=C(NCCCNC1CCCCC1)c1ccc(/C=N/O)nc1
COc1ccccc1-n1c(N)c(C(=O)NCC2CCCO2)c2nc3ccccc3nc21 (stereo not given)
CC(CC(=O)Nc1cccnc1)c1ccccc1 (stereo not given)
COC(=O)N1C(=O)[C@@](c2ccccc2)(C(C)C)N1C(=O)OC
O=C(COC(=O)c1cc(Br)ccc1O)Nc1cc(S(=O)(=O)N2CCCC2)ccc1Cl
Cc1ccc(-c2n[nH]c(=O)c3ccccc23)cc1S(=O)(=O)Nc1ccc(F)cc1
COc1cc(C(CCN2CCCC2)c2c(OC)cc(OC)c3ccc(=O)oc23)cc(OC)c1OC (stereo not given)
COc1cc(OC)c(OC)cc1/C=C/C(=O)c1ccc(NS(=O)(=O)c2ccc(C)cc2)cc1
CC(C)(C)C(=O)Nc1ccc(-c2cn3ccsc3n2)cc1
C/C(=N/NC(=O)c1cccs1)c1cccc(N)c1

Potency, inconclusive:
O=C(NCCC1CCCCN1S(=O)(=O)c1ccccc1)C(=O)NCc1ccncc1 (stereo not given) 20 µM [activator, single point]
O=C(COc1ccccc1)NCC(=O)N/N=C/c1ccc(Cl)cc1 8.91 µM [activator, partial curve, poor fit]
CCC(=O)N1CCN(c2c(Cl)cccc2[N+](=O)[O-])CC1 12.6 µM [activator, partial curve, poor fit]
CC(C)Sc1nnc([C@H](Cc2ccccc2)NC(=O)OC(C)(C)C)o1 10 µM [activator, partial curve, poor fit]
COC(=O)/C=C/c1oc2ccccc2c1C 28.2 µM [activator, single point]
Cc1cc(NC(=O)c2oc3ccccc3c2C)ccc1-n1cnnn1 31.6 µM [activator, single point]
CCC(Sc1nc(-c2cccc(OC)c2)c(C#N)c(=O)[nH]1)C(=O)Nc1nnc(C(C)C)s1 (stereo not given) 28.2 µM [activator, single point]
C=CCc1cc(OC)ccc1OCCCCn1cncn1 0.501 µM [activator, full curve, poor fit]
Cc1cccn2c(=O)c3cc(C#N)c(=NC(=O)c4ccco4)n(Cc4ccco4)c3nc12 10 µM [activator, single point]
CN(c1ccccc1)S(=O)(=O)c1cccc(NS(=O)(=O)c2ccc(/C=C/C(=O)O)cc2)c1 4.47 µM [activator, single point]
O=C(N/N=C/c1cccnc1)c1ccc(NC(=O)c2ccc(F)cc2)cc1 11.2 µM [activator, partial curve, poor fit]
Cc1c(C)c(C)c2[nH]c(-c3ccc4c(c3)OCO4)nc2c1C 4.47 µM [activator, single point]
Cc1cc(C)cc(NC(=O)CCc2c(C)nn(-c3ccc(N4CCCCC4)nn3)c2C)c1 3.16 µM [activator, partial curve, poor fit]
CCOC(=O)NC(=O)COC(=O)CNC(=O)c1cccc(OC)c1 28.2 µM [activator, single point]
COc1ccc(S(=O)(=O)N2CCOCC2)cc1NC(=O)CNC(=O)c1cccs1 5.01 µM [activator, single point]
Cc1cc(C)nc(NS(=O)(=O)c2ccc(NC(=O)c3cc4c(=O)n5cccc(C)c5nc4n3C)cc2)n1 28.2 µM [activator, single point]
O=C(Nc1ccc2c(c1)CCC2)c1ccccc1Br 12.6 µM [activator, single point]
Cc1ccc(S(=O)(=O)CCC(=O)Nc2ccccc2Br)cc1 3.16 µM [activator, partial curve, poor fit]
Cn1cnnc1SCc1nc(N)nc(Nc2ccccc2)n1 5.62 µM [activator, full curve, poor fit]
CC(C)Oc1cccc(C(=O)Nc2ccc(CN3CCOCC3)cc2)c1 8.91 µM [activator, partial curve]
COC(=O)C(Cc1c[nH]c2ccccc12)N1CCS(=O)(=O)CC1 (stereo not given) 31.6 µM [activator, partial curve, poor fit]
C=CCc1ccccc1OCC(O)CN1CCN(CCO)CC1 (stereo not given) 3.16 µM [activator, single point]
COc1ccc(OCCSc2nc3ccccc3n2CCC(=O)O)cc1 25.1 µM [activator, partial curve, poor fit]
Cc1ccc(NC(=O)c2ccccc2)cc1OC(=O)c1ccccc1 10 µM [activator, partial curve, poor fit]
CC1CC(C)CN(S(=O)(=O)c2ccc(F)c(C(=O)Nc3ccc(Cl)cc3F)c2)C1 (stereo not given) 17.8 µM [activator, single point]
CCc1cccc(CC)c1NC(=O)CSc1nnc(C2CC2)n1C 11.2 µM [activator, single point]
Cc1ccc(C)c(N2CCN(C(=O)C3CCN(c4nc(C)cc(C)n4)CC3)CC2)c1 5.01 µM [activator, single point]
COC(=O)C/C(N)=C(\C#N)C(=O)OC 22.4 µM [activator, single point]
Cc1c(N=c2scc(-c3ccccc3)n2C)c(=O)n(-c2ccccc2)n1C 1.41 µM [activator, partial curve, poor fit]
COc1ccc(Nc2cc(C)c3c(O)cccc3n2)cc1 7.94 µM [activator, partial curve, poor fit]
COC(=O)c1cccc(C(=O)N2CCCC(C(=O)c3cccc(OC(C)C)c3)C2)c1 (stereo not given) 28.2 µM [activator, single point]
CCOC(=O)Nc1ccc2c(c1)N(C(=O)CNC)c1ccccc1CC2 28.2 µM [activator, single point]
O=C(Nc1ccc(Oc2cccnc2)nc1)c1ccc(C(F)(F)F)cc1 5.01 µM [activator, single point]
CCOc1ccccc1N(C(=O)c1snc(C(N)=O)c1N)C(C(=O)NCCC(C)C)c1ccco1 (stereo not given) 3.98 µM [activator, single point]
Cc1csc(NC(=O)c2ccc(N3CCCC3=O)cc2)n1 2.51 µM [activator, full curve, poor fit]
O=C(Cc1ccc(Cl)cc1)Nc1ccc(Br)cn1 2.24 µM [activator, full curve, poor fit]
COc1cccc(C(=O)NC(=O)Nc2cc(C)on2)c1 3.55 µM [activator, single point]
CC(=O)c1cccc(NC(=O)Nc2ccc(C(=O)N3CCOCC3)cc2)c1 3.55 µM [activator, partial curve, poor fit]
COc1cc(NC(=O)c2cccnc2SC)cc(OC)c1 3.16 µM [activator, single point]

No new results follow: 2 of the compounds above.
Potency, inconclusive:
COc1ccc(Nc2cc(C)c3c(O)cccc3n2)cc1 7.94 µM [activator, partial curve, poor fit]
COC(=O)c1cccc(C(=O)N2CCCC(C(=O)c3cccc(OC(C)C)c3)C2)c1 (stereo not given) 28.2 µM [activator, single point]

Next part:

activation, inconclusive:
CC(C)c1ccc(N(CC(=O)NN=C2CCN(C)CC2)S(=O)(=O)c2ccccc2)cc1 -46.4% [activator]
Cc1[nH]c2ccc(F)cc2c1CCN(Cc1ccco1)C(=S)NC(C)(C)C -0.865% [activator]

activation, inactive:
COc1nn(C(C)C(=O)N2N=C(C(F)F)CC2(O)C(F)F)cc1[N+](=O)[O-] (stereo not given) -35.8% [at 7.66 µM]
